# Data published in the supplement of paper PMC8728848.
# Some of the results follow.
# B1: TAL6-6LysM (Trichoderma atroviride) (protein)
# chain: AASKLGVPQPAQRDQVNCQLYAVQPNDNCIDISSKNNITYAQLLSWNPSLSSTCSNLASLNSSSICVSNPKGTFSISSNTVGATDIATTTAPVPSPTLDQTTSRCAKYYQVSDGDDCSHLTAQFAITLKDFIFLNSEVWQNCTNLELGYYYCVEPVGYISTYPGYLPTATTKPFNQTSATSLPYDGDPWARFSSNSSVIPIANGTRVDCYSYVYVKNLTENLFADCWNMASMYEITREELVLWNPSLGNDGSSGSNLSGAEASQVASSIAIPTTAPSSITTNLYTYPCTVAANISYCVALVSSTGALPTNTAPPGPHASGEISNCTAWFAPEAYDTCKSILDIFEMSFANFYKMNPSVGPDCSGLAVGTNYCVSTYPNGEDPNDDWDGDDSIPSISPTGIITPTPTQSGMVSNCNKFYDVHSNDGCSAIASSQHVDLSSLYKWNPAIKTDCSGLQASVYVCIGILTTSMSTTSKLPTTTSKPSTTSKPPTGITTPTPTQSGMVKNCNKFYDVHSGDGCSAIASSQKVNLSSFYLWNPAVKTDCSGLQASVFVCIGTLTTSMSTTTSKLPTTTSKPSTTSKPPTGIITPTPTQNGMVKNCNKFYDVHSGDGCSAIASSQKVNLSSFYLWNPAVKTDCSGLQASVFVCVGTATTTTAAGITTPTPTQSGMVSGCNKFYDVHAGDGCSAIASSQKIALSSLYKWNPAVKTDCSGLQASVYICIGVGNAAAARVTGAAASFLEQKLISEEDLNSAVDHHHHHH
# Columns and labels:
# Test in all cases: glycan array binding signal (z-score within array); higher = stronger binding
# Settings in all cases: glycan notation: IUPAC condensed, linker removed
# [1] = molecular target: Neu5Ac(a2-3)Gal(b1-3)[Fuc(a1-4)]GlcNAc
# Method in brief: (§1)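 The binding signal is a Z-score computed within each array. Data were drawn from 3228 arrays in the Consortium for Functional Glycomics database, restricted to those with a known protein sequence. Scores were averaged over arrays of the same protein sequence at different concentrations or buffers, and over linkers, and negative values can be taken as non-binding.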
# [2] = molecular target: Neu5Ac(a2-3)Gal(b1-3)[Fuc(a1-4)]GlcNAc(b1-3)Gal(b1-3)[Fuc(a1-4)]GlcNAc
# Method in brief: as §1
# [3] = molecular target: Neu5Ac(a2-3)Gal(b1-3)[Fuc(a1-4)]GlcNAc(b1-3)Gal(b1-4)[Fuc(a1-3)]GlcNAc
# Method in brief: as §1
# [4] = molecular target: Neu5Ac(a2-3)Gal(b1-3)[GlcNAc(b1-6)]GalNAc
# Method in brief: as §1
# [5] = molecular target: Neu5Ac(a2-3)Gal(b1-3)[Neu5Ac(a2-6)]GalNAc
# Method in brief: as §1
# [6] = molecular target: Neu5Ac(a2-3)Gal(b1-3)[Neu5Ac(a2-6)]GlcNAc(b1-3)[Fuc(a1-3)[Gal(b1-4)]GlcNAc(b1-6)]Gal(b1-4)Glc
# Method in brief: as §1
# [7] = molecular target: Neu5Ac(a2-3)Gal(b1-3)]Neu5Ac(a2-3)Gal(b1-4)]GlcNAc
# Method in brief: as §1
# Neu5Ac(a2-3)Gal(b1-4)Glc = molecular target: Neu5Ac(a2-3)Gal(b1-4)Glc
# Method in brief: as §1
# [8] = molecular target: Neu5Ac(a2-3)Gal(b1-4)GlcNAc
# Method in brief: as §1
# [9] = molecular target: Neu5Ac(a2-3)Gal(b1-4)GlcNAc(b1-2)Man
# Method in brief: as §1
# [10] = molecular target: Neu5Ac(a2-3)Gal(b1-4)GlcNAc(b1-2)Man(a1-3)[GlcNAc(b1-4)][Neu5Ac(a2-3)Gal(b1-4)GlcNAc(b1-2)Man(a1-6)]Man(b1-4)GlcNAc(b1-4)GlcNAc
# Method in brief: as §1
# [11] = molecular target: Neu5Ac(a2-3)Gal(b1-4)GlcNAc(b1-2)Man(a1-3)[Neu5Ac(a2-3)Gal(b1-4)GlcNAc(b1-2)Man(a1-6)]Man(b1-4)GlcNAc(b1-4)GlcNAc
# Method in brief: as §1
# [12] = molecular target: Neu5Ac(a2-3)Gal(b1-4)GlcNAc(b1-2)Man(a1-3)[Neu5Ac(a2-3)Gal(b1-4)GlcNAc(b1-2)Man(a1-6)]Man(b1-4)GlcNAc(b1-4)[Fuc(a1-6)]GlcNAc
# Method in brief: as §1
# [13] = molecular target: Neu5Ac(a2-3)Gal(b1-4)GlcNAc(b1-2)Man(a1-3)[Neu5Ac(a2-6)Gal(b1-4)GlcNAc(b1-2)Man(a1-6)]Man(b1-4)GlcNAc(b1-4)GlcNAc
# Method in brief: as §1
# [14] = molecular target: Neu5Ac(a2-3)Gal(b1-4)GlcNAc(b1-2)[Neu5Ac(a2-3)Gal(b1-4)GlcNAc(b1-4)]Man(a1-3)[GlcNAc(b1-4)][Neu5Ac(a2-3)Gal(b1-4)GlcNAc(b1-2)[Neu5Ac(a2-3)Gal(b1-4)GlcNAc(b1-6)]Man(a1-6)]Man(b1-4)GlcNAc(b1-4)GlcNAc
# Method in brief: as §1
# [15] = molecular target: Neu5Ac(a2-3)Gal(b1-4)GlcNAc(b1-2)[Neu5Ac(a2-3)Gal(b1-4)GlcNAc(b1-4)]Man(a1-3)[GlcNAc(b1-4)][Neu5Ac(a2-3)Gal(b1-4)GlcNAc(b1-4)Man(a1-6)]Man(b1-4)GlcNAc(b1-4)GlcNAc
# Method in brief: as §1
# [16] = molecular target: Neu5Ac(a2-3)Gal(b1-4)GlcNAc(b1-2)[Neu5Ac(a2-3)Gal(b1-4)GlcNAc(b1-6)]Man(a1-6)[Neu5Ac(a2-3)Gal(b1-4)GlcNAc(b1-2)Man(a1-3)]Man(b1-4)GlcNAc(b1-4)GlcNAc
# Method in brief: as §1
# [17] = molecular target: Neu5Ac(a2-3)Gal(b1-4)GlcNAc(b1-2)[Neu5Ac(a2-3)Gal(b1-4)GlcNAc(b1-6)]Man(a1-6)[Neu5Ac(a2-3)Gal(b1-4)GlcNAc(b1-2)Man(a1-3)][GlcNAc(b1-4)]Man(b1-4)GlcNAc(b1-4)GlcNAc
# Method in brief: as §1
# [18] = molecular target: Neu5Ac(a2-3)Gal(b1-4)GlcNAc(b1-3)Gal
# Method in brief: as §1
# [19] = molecular target: Neu5Ac(a2-3)Gal(b1-4)GlcNAc(b1-3)Gal(b1-3)GlcNAc
# Method in brief: as §1
# [20] = molecular target: Neu5Ac(a2-3)Gal(b1-4)GlcNAc(b1-3)Gal(b1-4)GlcNAc
# Method in brief: as §1
# [21] = molecular target: Neu5Ac(a2-3)Gal(b1-4)GlcNAc(b1-3)Gal(b1-4)GlcNAc(b1-2)Man(a1-3)[Neu5Ac(a2-3)Gal(b1-4)GlcNAc(b1-3)Gal(b1-4)GlcNAc(b1-2)Man(a1-6)]Man(b1-4)GlcNAc(b1-4)GlcNAc
# Method in brief: as §1
# [22] = molecular target: Neu5Ac(a2-3)Gal(b1-4)GlcNAc(b1-3)Gal(b1-4)GlcNAc(b1-3)Gal(b1-4)GlcNAc
# Method in brief: as §1
# [23] = molecular target: Neu5Ac(a2-3)Gal(b1-4)GlcNAc(b1-3)Gal(b1-4)GlcNAc(b1-3)Gal(b1-4)GlcNAc(b1-2)Man(a1-3)[Neu5Ac(a2-3)Gal(b1-4)GlcNAc(b1-3)Gal(b1-4)GlcNAc(b1-3)Gal(b1-4)GlcNAc(b1-2)Man(a1-6)]GalNAc
# Method in brief: as §1
# [24] = molecular target: Neu5Ac(a2-3)Gal(b1-4)GlcNAc(b1-3)Gal(b1-4)GlcNAc(b1-3)GalNAc
# Method in brief: as §1
# [25] = molecular target: Neu5Ac(a2-3)Gal(b1-4)GlcNAc(b1-3)Gal(b1-4)GlcNAc(b1-3)[Neu5Ac(a2-3)Gal(b1-4)GlcNAc(b1-3)Gal(b1-4)GlcNAc(b1-6)]GalNAc
# Method in brief: as §1
# [26] = molecular target: Neu5Ac(a2-3)Gal(b1-4)GlcNAc(b1-3)Gal(b1-4)GlcNAc(b1-6)[Gal(b1-3)]GalNAc
# Method in brief: as §1
# [27] = molecular target: Neu5Ac(a2-3)Gal(b1-4)GlcNAc(b1-3)Gal(b1-4)[Fuc(a1-3)]GlcNAc
# Method in brief: as §1
# [28] = molecular target: Neu5Ac(a2-3)Gal(b1-4)GlcNAc(b1-3)GalNAc
# Method in brief: as §1
# [29] = molecular target: Neu5Ac(a2-3)Gal(b1-4)GlcNAc(b1-3)[Neu5Ac(a2-3)Gal(b1-4)GlcNAc(b1-6)]GalNAc
# Method in brief: as §1
binder,measurement,setting,value
B1,glycan array binding signal (z-score),[1],1.22
same,glycan array binding signal (z-score),[2],-0.756
same,glycan array binding signal (z-score),[3],1.02
same,glycan array binding signal (z-score),[4],-1.63
same,glycan array binding signal (z-score),[5],0.887
same,glycan array binding signal (z-score),[6],0.865
same,glycan array binding signal (z-score),[7],-0.807
same,glycan array binding signal (z-score),Neu5Ac(a2-3)Gal(b1-4)Glc,-0.573
same,glycan array binding signal (z-score),[8],-0.586
same,glycan array binding signal (z-score),[9],0.22
same,glycan array binding signal (z-score),[10],0.194
same,glycan array binding signal (z-score),[11],-0.417
same,glycan array binding signal (z-score),[12],0.049
same,glycan array binding signal (z-score),[13],-0.683
same,glycan array binding signal (z-score),[14],-0.981
same,glycan array binding signal (z-score),[15],-0.721
same,glycan array binding signal (z-score),[16],0.485
same,glycan array binding signal (z-score),[17],0.013
same,glycan array binding signal (z-score),[18],-1.16
same,glycan array binding signal (z-score),[19],-0.147
same,glycan array binding signal (z-score),[20],-0.54
same,glycan array binding signal (z-score),[21],-0.658
same,glycan array binding signal (z-score),[22],1.76
same,glycan array binding signal (z-score),[23],-0.398
same,glycan array binding signal (z-score),[24],0.926
same,glycan array binding signal (z-score),[25],-0.648
same,glycan array binding signal (z-score),[26],-0.275
same,glycan array binding signal (z-score),[27],0.026
same,glycan array binding signal (z-score),[28],-0.543
same,glycan array binding signal (z-score),[29],-1.25

# 5 entries from above, with bars between the fields:
binder | measurement | setting | value
B1 | glycan array binding signal (z-score) | [14] | -0.981
same | glycan array binding signal (z-score) | [19] | -0.147
same | glycan array binding signal (z-score) | [20] | -0.54
same | glycan array binding signal (z-score) | [26] | -0.275
same | glycan array binding signal (z-score) | [28] | -0.543
